Results are given in words; binding and its absence hold for the method and conditions named. In cells and extracts the contact can be indirect. Sequences can lack the tags named with a protein.
Target: GST-RIIβ (UniProt P31323)
Assay: pull-down; GST-fusion proteins on glutathione Sepharose beads incubated with whole-cell lysates of HEK293 cells transfected with HA-RBP2, 3 h at 4 °C; lysis buffer 1× PBS, 0.5% Triton X-100 with protease inhibitors; four washes; western blot with anti-HA and anti-GAPDH; only the target purified

By UniProt entry, the sequences of proteins in these tests, tags left out.
UniProt P31323: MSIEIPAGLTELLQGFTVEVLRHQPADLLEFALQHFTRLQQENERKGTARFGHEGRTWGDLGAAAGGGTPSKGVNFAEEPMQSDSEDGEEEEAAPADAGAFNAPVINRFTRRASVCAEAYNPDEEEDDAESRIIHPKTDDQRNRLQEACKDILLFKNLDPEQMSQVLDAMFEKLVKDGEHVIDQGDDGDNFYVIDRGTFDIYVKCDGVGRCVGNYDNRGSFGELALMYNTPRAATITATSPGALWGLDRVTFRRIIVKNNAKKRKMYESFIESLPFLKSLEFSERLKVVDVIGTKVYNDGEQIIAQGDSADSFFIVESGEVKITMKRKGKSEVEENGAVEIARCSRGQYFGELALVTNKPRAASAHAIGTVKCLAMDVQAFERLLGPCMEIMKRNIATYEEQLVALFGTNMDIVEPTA
UniProt P04406: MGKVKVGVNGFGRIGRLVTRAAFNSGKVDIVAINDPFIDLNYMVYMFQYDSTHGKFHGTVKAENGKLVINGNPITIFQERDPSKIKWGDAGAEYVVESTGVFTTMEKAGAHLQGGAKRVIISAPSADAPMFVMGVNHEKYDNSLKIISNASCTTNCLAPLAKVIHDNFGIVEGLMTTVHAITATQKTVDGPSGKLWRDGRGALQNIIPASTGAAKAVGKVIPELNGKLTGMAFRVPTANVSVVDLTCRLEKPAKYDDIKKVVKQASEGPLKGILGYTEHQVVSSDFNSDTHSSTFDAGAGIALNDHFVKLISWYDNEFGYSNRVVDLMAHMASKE

Row | binding | Molecule
1 | no binding | GAPDH (from UniProt P04406 1-335)
2 | no binding | HA-tagged rat RIM-binding protein 2 (HA-rRBP2) (protein, UniProt Q9JIR1 1-1049) MREAAERRQQLELEHEQALAILNAKQQEIQLLQQSKVRELEEKCRVQSEQFNLLSRDLEKFRQHAGSIDLLGSNSVALLDVPLAPGKPFSQYMNGLATSIHKGHEGPTGHYSVIGDYIPLSGDKLESPCVKPSFLLRSSSPRCRFESEMDDDRSSNKSKHSSSGKVHLCVARYSYNPFDGPNENPEAELPLTAGKYLYVYGDMDEDGFYEGELLDGQRGLVPSNFVDFIQDNESRFAGTLGSEQDQNFLNHSGISLERDSILHLHSPTQVDSGITDNGGGTLDVNIDDIGEDIVPYPRKITLIKQLAKSVIVGWEPPAVPPGWGTVSSYNVLVDKETRMSLALGRRTKALIEKLNTAACTYRISVQCVTSRGNSDELQCTLLVGKDVVVAPSQLRVDNITQISAQLSWLPTNSNYSHIIFLNEEELDIVKAARYKYQFFNLRPNMAYKVKVLAQPHQMPWQLPLEQREKDEACVEFSTLPAGPPAPPQDVTVQAGATTASVQVSWKPPALTPTGLSNGANVTGYGVYAKGQRVAEVIAPTANGAAVELVRLRSLEAKAVSVRTLSAQGESMDSALAAIPPDLLVPPAPHPRTAPPPKPLTSDMDTKDLGPHVKVDESWEQSRPPGPAHGHMLEPPDMHSTGPGRRSPSPSRILPQPQGAPVSTTVAKAMAREAAQRVAETSKLEKRSLFLEQSSAGPYANSDEEDGYASPEVKRRGTSVDDFLKGSELGQQPHCCHGDEYHTESSRGSDLSDIMEEDEEELYSEMQLEDGGRRRPSGTSHNALKILGNSALMGRGDRMEHVSRRYSHSGGGPQRHRPMAPSIDEYTGRDHLSPDFYDESETDPGAEELPARIFVALFDYDPLTMSPNPDAAEEELPFKEGQIIKVYGDKDADGFYRGETCARLGLIPCNMVSEIHADDEEMMDQLLRQGFLPLNTPVEKIERSRRSGRGHSVPTRRMVALYDYDPRESSPNVDVEAELLFCTGDIITVFGEIDEDGFYYGELNGQKGLVPSNFLEEVPDDVEVHLSDAPPHYSHDPPMRTKAKRVSQPP
